doi:10.1101/567305

Protein sequences, listed by entry. Tags and fused reporters are not part of them.
UniProt Q8TD19: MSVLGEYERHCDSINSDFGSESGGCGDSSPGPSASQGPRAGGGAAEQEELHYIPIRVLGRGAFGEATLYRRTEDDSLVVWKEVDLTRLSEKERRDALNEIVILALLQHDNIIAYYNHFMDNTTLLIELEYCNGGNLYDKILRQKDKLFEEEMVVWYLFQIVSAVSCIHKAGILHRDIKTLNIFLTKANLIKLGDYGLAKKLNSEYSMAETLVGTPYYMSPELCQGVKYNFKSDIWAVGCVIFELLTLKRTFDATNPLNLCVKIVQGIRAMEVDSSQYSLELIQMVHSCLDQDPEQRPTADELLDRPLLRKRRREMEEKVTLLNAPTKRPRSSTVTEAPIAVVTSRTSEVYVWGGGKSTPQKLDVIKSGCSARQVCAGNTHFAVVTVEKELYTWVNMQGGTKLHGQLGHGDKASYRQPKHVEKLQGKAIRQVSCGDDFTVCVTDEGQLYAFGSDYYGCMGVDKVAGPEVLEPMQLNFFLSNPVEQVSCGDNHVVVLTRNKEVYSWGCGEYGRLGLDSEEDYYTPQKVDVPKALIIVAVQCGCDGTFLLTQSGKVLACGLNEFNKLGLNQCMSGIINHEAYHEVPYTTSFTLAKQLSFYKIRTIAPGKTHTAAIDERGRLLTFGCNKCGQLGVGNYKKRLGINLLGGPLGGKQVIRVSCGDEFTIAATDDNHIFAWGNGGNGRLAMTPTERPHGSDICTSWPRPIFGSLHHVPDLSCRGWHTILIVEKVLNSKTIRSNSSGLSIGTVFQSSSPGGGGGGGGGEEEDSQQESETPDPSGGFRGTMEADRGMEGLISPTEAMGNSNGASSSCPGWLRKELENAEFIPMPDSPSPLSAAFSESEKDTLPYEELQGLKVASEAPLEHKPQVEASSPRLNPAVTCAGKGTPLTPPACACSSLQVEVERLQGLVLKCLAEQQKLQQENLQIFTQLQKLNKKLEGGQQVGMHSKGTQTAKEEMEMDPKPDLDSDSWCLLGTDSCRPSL

Molecular target: myc-tagged wild-type NEK9 (human) (UniProt Q8TD19)
Assay: affinity purification with mass spectrometry

B1: EML4 (endogenous), echinoderm microtubule-associated protein-like 4 (protein, UniProt Q9HC35 1-981)
chain: MDGFAGSLDDSISAASTSDVQDRLSALESRVQQQEDEITVLKAALADVLRRLAISEDHVASVKKSVSSKGQPSPRAVIPMSCITNGSGANRKPSHTSAVSIAGKETLSSAAKSGTEKKKEKPQGQREKKEESHSNDQSPQIRASPSPQPSSQPLQIHRQTPESKNATPTKSIKRPSPAEKSHNSWENSDDSRNKLSKIPSTPKLIPKVTKTADKHKDVIINQEGEYIKMFMRGRPITMFIPSDVDNYDDIRTELPPEKLKLEWAYGYRGKDCRANVYLLPTGKIVYFIASVVVLFNYEERTQRHYLGHTDCVKCLAIHPDKIRIATGQIAGVDKDGRPLQPHVRVWDSVTLSTLQIIGLGTFERGVGCLDFSKADSGVHLCIIDDSNEHMLTVWDWQKKAKGAEIKTTNEVVLAVEFHPTDANTIITCGKSHIFFWTWSGNSLTRKQGIFGKYEKPKFVQCLAFLGNGDVLTGDSGGVMLIWSKTTVEPTPGKGPKGVYQISKQIKAHDGSVFTLCQMRNGMLLTGGGKDRKIILWDHDLNPEREIEVPDQYGTIRAVAEGKADQFLVGTSRNFILRGTFNDGFQIEVQGHTDELWGLATHPFKDLLLTCAQDRQVCLWNSMEHRLEWTRLVDEPGHCADFHPSGTVVAIGTHSGRWFVLDAETRDLVSIHTDGNEQLSVMRYSIDGTFLAVGSHDNFIYLYVVSENGRKYSRYGRCTGHSSYITHLDWSPDNKYIMSNSGDYEILYWDIPNGCKLIRNRSDCKDIDWTTYTCVLGFQVFGVWPEGSDGTDINALVRSHNRKVIAVADDFCKVHLFQYPCSKAKAPSHKYSAHSSHVTNVSFTHNDSHLISTGGKDMSIIQWKLVEKLSLPQNETVADTTLTKAPVSSTESVIQSNTPTPPPSQPLNETAEEESRISSSPTLLENSLEQTVEPSEDHSEEESEEGSGDLGEPLYEEPCNEISKEQAKATLLEDQQDPSPSS
binding: binds

These are yes or no findings as the source states them, for the method shown. Binding seen in cells or lysates may run through a third protein. These calls come from enrichment with a bait or labelling near it, and not all partners need be listed.
